# Some of the results follow. These are raw signals, not scaled to a control.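 First-pass screen: polymyxin B was added at a level that permeabilizes the Salmonella outer membrane while sparing the inner membrane. DMSO wells, with and without polymyxin B, defined maximum growth. Because plates differed from one another, each plate's data were ranked separately and the compounds with the lowest OD600 were carried forward as hits.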
# System: Salmonella enterica serovar Typhimurium SL1344
# Test: bacterial growth OD600 after 18 h with compound and polymyxin B; higher = more bacterial growth (less inhibition)
# Details: 50 µM, Mueller-Hinton broth
SMILES,bacterial growth OD600 (polymyxin B 0.75 µg/mL),bacterial growth OD600 (polymyxin B 1 µg/mL)
COc1cccc(CN2C[C@@H]3C[C@@H](c4ccc(C)s4)N4CCC[C@@]34C2=O)c1,0.777,
CCN1CCN(C(=O)c2cc(COc3ccc4c(c3)CCCC4)on2)[C@@H](C)C1=O,,0.667
CCCCN(C)Cc1cnc(S(=O)(=O)Cc2ccccc2)n1CC(C)C,,0.615
COc1ccc(-n2cc(CNC3CCN(C)CC3)c(-c3cccc(F)c3)n2)cc1,,0.808
Cc1nc(N2CCC(C(=O)NCC(C)(C)N3CCOCC3)CC2)nc2ccc(C(C)C)cc12,0.947,
O=C1CCCN1CC(=O)N1CCc2[nH]nc(-c3ccc(C(F)(F)F)cc3)c2C1,0.599,
Fc1ccc(Oc2ncccc2CNc2ncccn2)c(F)c1,0.879,
CC(C)CC(=O)NC1CC(C)(C)Cc2nc(N3CCOCC3)ncc21 (stereo not given),0.884,
C=C(C)CN(CC)C(=O)c1ccc(OC2CCN(C(=O)CCOC)CC2)cc1,,0.858
COC(=O)C1CCCCN1C(=O)CCc1nnc(CCc2ccccc2OC)o1 (stereo not given),,1.15
O=C(c1sccc1Cl)N1CCOc2ccc(CN3CCN(c4ncccn4)CC3)cc2C1,0.766,
O=C1CC(NC2CCSCC2)CN1CCc1ccccc1 (stereo not given),,0.963
Cc1ccccc1-c1cccc(CN2CCCC(CCC(=O)N3CCOCC3)C2)c1 (stereo not given),,0.874
O=C(c1ccc(-c2ccco2)cc1)N1CCC2(CC1)CC2C(=O)N1CCN(c2ccccn2)CC1 (stereo not given),0.843,
COCCN1C(=O)CC(CC(=O)N(C)CC23CC4CC(CC(C4)C2)C3)(c2ccccc2Cl)C1=O (stereo not given),0.505,
COC(=O)CNC1CCN(c2ccc(C(=O)NCCN3CCOCC3)cc2)CC1,1.01,
CC#CCN1C(=O)NC(CCc2ccccc2)(C2CCN(C(=O)C3CCCCC3)CC2)C1=O (stereo not given),0.893,
COCC1CCCN(C(=O)c2cc(COc3cccc(C(F)(F)F)c3)on2)C1 (stereo not given),,0.016
COCC1CCN(CC2(O)CCCN(Cc3cccc(F)c3F)C2=O)CC1 (stereo not given),,0.915
CCOC(=O)C1(Cc2ccccc2C(F)(F)F)CCN(Cc2cn(C)nc2C)CC1,,0.892
COc1cccc(CC2(CCC(=O)N3CCC(c4nc5ccccc5o4)CC3)CCC(=O)N2)c1 (stereo not given),0.826,
CCN(CC)c1ccc(C(=O)NCCC2CCCCN2C)cn1 (stereo not given),,0.956
CC1(C)Cc2nc(N3CCOCC3)ncc2C(NC(=O)C2CCC2)C1 (stereo not given),0.829,
COCCN1C(=O)CC(CC(=O)N2CCCC(OCc3ccccc3)C2)(c2ccccc2F)C1=O (stereo not given),0.794,
CCC1CN(CCNC(=O)c2ccc(C(C)=O)s2)Cc2cc(OC)ccc2O1 (stereo not given),0.95,
CN(C)CCN(CC1CCCN(Cc2ccccc2F)C1)C(=O)c1ccsc1 (stereo not given),0.824,
CC(=O)N1CCC(Oc2ccc(Cl)cc2C(=O)N2CCN(CC3CC3)CC2)CC1,,0.914
CCOC(=O)N1CCC(N2CCCC(Nc3ccccc3)C2)CC1 (stereo not given),,0.895
CC(C)c1ccc(CN2CCCC3(CCN(S(=O)(=O)C(C)C)C3)C2=O)cc1 (stereo not given),,0.824
O=C(NCC1CC1)C1CCCN(C2CCN(c3nc4ccccc4o3)CC2)C1 (stereo not given),0.774,

# Three compounds out of the list, sorted by SMILES length, descending:
SMILES,bacterial growth OD600 (polymyxin B 0.75 µg/mL),bacterial growth OD600 (polymyxin B 1 µg/mL)
O=C1CCCN1CC(=O)N1CCc2[nH]nc(-c3ccc(C(F)(F)F)cc3)c2C1,0.599,
CC(=O)N1CCC(Oc2ccc(Cl)cc2C(=O)N2CCN(CC3CC3)CC2)CC1,,0.914
CCOC(=O)C1(Cc2ccccc2C(F)(F)F)CCN(Cc2cn(C)nc2C)CC1,,0.892

# From the supplement of paper PMC12889115
